The exact form of at least one protein or probe is not confirmed. Where cells or extracts were used, other partners may take part. At least one verdict rests on a figure or table, not on a statement of the authors. Tags and fusion partners may be left off the protein sequences shown.
Molecular target: T1, C/EBPβ (UniProt P28033)
T1 sequence (looked up, limits assumed): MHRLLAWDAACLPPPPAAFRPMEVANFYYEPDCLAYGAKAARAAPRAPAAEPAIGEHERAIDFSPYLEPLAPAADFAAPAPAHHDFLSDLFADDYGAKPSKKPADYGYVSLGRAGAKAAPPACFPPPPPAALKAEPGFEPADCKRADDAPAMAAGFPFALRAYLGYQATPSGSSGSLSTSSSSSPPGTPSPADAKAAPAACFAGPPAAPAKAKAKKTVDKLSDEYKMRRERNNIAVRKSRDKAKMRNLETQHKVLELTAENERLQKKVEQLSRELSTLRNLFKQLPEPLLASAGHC
Assay: EMSA
Conditions: nuclear extract, UPF1 knockdown raises homodimer species 8-fold; EMSA: conditions as previously described (not given); protein in an extract; label: 32P

## GATCCATATCCCTGATTGCGCAATAGGCTCAAAA (double strand) [C/EBP consensus EMSA probe]
  binding result: binds

Source: paper PMC13469816
